In PubChem BioAssay AID192 (DTP/NCI, 2004):
The list is a part of this screen's results and no random one: it is rich in T/C values a quarter to a half above the control, in often repeated tests (any T/C) and in doses without a T/C. Other doses and runs of a compound stand elsewhere. T/C: endpoint of the treated group in % of that of the vehicle group. Some entries give survivors of the animals treated and no T/C: the source holds a T/C of zero for them, seemingly a mark for toxic or unscored doses. Some survivor counts are full or nearly so, which does not show that the dose was tolerated: survival well below the control is almost never listed, so the zero probably covers shortened survival too. Counts of survivors are from the toxicity check (mostly the fifth day) where no day follows; animals may have died later. Schedule codes are those of the source, read here as Q, the interval in days (D) or hours (H), X, the number of doses. Some structures stand for samples that the source files as different forms (salt, stereo form or complex); doses refer to the form tested. Some entries hold several experiments; the values are given in rising order. Signs of the kind (2×) say how often a value occurs here. For survival time, this PubChem deposit counts one and a half times the control or more as active, and values a quarter to a half above the control carry no call in these data; other NCI protocols may use other cut-offs. Some T/C values carry the count of animals alive at the toxicity check (mostly the fifth day); where none is given, no animal had died by that day.

Test system: BDF1 mice, B16 melanoma ip, median survival T/C
Test: NCI In Vivo Anticancer Drug Screen. Data for tumor model B16 Melanoma (intraperitoneal) in B6D2F1 (BDF1) mice
Details: T/C endpoint: median survival time, higher T/C = longer survival
Outline: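 Transplantable tumor model; survival or tumor size measured; reported as T/C, treated over vehicle control.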

[1] = dose: 32.0 mg/kg/injection, schedule: Q01DX009 (ip), vehicle: Klucel (hydroxypropylcellulose) (HPC)
[2] = dose: 32.0 mg/kg/injection, schedule: Q01DX009 (ip), vehicle: water

## O=C1c2ccccc2C(=O)c2c(NCCNCCO)ccc(NCCNCCO)c21
dose: 0.25 mg/kg/injection, schedule: Q01DX009 (ip), vehicle: saline with Tween-80
  T/C: 125 % of control
dose: 0.25 mg/kg/injection, schedule: Q01DX009 (oral), vehicle: water
  survivor count: 3 of 10
dose: 0.5 mg/kg/injection, schedule: Q01DX009 (ip), vehicle: saline with Tween-80
  T/C: 139 % of control
dose: 0.5 mg/kg/injection, schedule: Q01DX009 (ip), vehicle: saline
  T/C: 133 % of control
dose: 0.5 mg/kg/injection, schedule: Q01DX009 (oral), vehicle: water
  survivor count: 4 of 10
dose: 1.0 mg/kg/injection, schedule: Q01DX009 (ip), vehicle: saline with Tween-80
  T/C: 147 % of control
dose: 1.0 mg/kg/injection, schedule: Q01DX009 (ip), vehicle: saline
  T/C: 125, 125 [9 of 10 alive], 145 % of control
dose: 1.0 mg/kg/injection, schedule: Q01DX009 (oral), vehicle: water
  survivor count: 10 of 10
dose: 1.0 mg/kg/injection, schedule: Q03HX024 (ip), vehicle: saline
  T/C: 146 % of control
dose: 2.0 mg/kg/injection, schedule: Q01DX009 (ip), vehicle: other
  T/C: 131 % of control
dose: 2.0 mg/kg/injection, schedule: Q01DX009 (ip), vehicle: saline with Tween-80
  T/C: 138 % of control
dose: 2.0 mg/kg/injection, schedule: Q01DX009 (ip), vehicle: saline, evaluated on day 56
  T/C: 157 % of control
dose: 2.0 mg/kg/injection, schedule: Q01DX009 (ip), vehicle: saline, evaluated on day 60
  T/C: 124 [9 of 10 alive], 146, 147, 163 % of control
dose: 2.0 mg/kg/injection, schedule: Q01DX009 (oral), vehicle: water
  survivor count: 9 of 10
dose: 2.0 mg/kg/injection, schedule: Q01DX009 (sc), vehicle: acid diluted with saline
  T/C: 144 % of control
dose: 2.0 mg/kg/injection, schedule: Q03HX008 (ip), vehicle: saline
  T/C: 134 % of control
dose: 4.0 mg/kg/injection, schedule: Q01DX009 (ip), vehicle: other
  T/C: 141 % of control
dose: 4.0 mg/kg/injection, schedule: Q01DX009 (ip), vehicle: saline, evaluated on day 56
  T/C: 181 % of control
dose: 4.0 mg/kg/injection, schedule: Q01DX009 (ip), vehicle: saline, evaluated on day 60
  T/C: 147, 163, 168, 178 [9 of 10 alive], 196 % of control
dose: 4.0 mg/kg/injection, schedule: Q01DX009 (oral), vehicle: water
  survivor count: 9 of 10
dose: 4.0 mg/kg/injection, schedule: Q03HX008 (ip), vehicle: saline
  T/C: 146 % of control
dose: 8.0 mg/kg/injection, schedule: Q01DX001 (ip), vehicle: saline
  T/C: 130 % of control
dose: 8.0 mg/kg/injection, schedule: Q01DX005 (ip), vehicle: saline
  T/C: 146 % of control
dose: 8.0 mg/kg/injection, schedule: Q01DX009 (ip), vehicle: saline, evaluated on day 56
  T/C: 222 % of control
dose: 8.0 mg/kg/injection, schedule: Q01DX009 (ip), vehicle: saline, evaluated on day 60
  T/C: 152, 184, 186, 199, 208 % of control
dose: 8.0 mg/kg/injection, schedule: Q01DX009 (ip), vehicle: water
  T/C: 180, 197, 227, 245 % of control
dose: 8.0 mg/kg/injection, schedule: Q01DX009 (oral), vehicle: water
  survivor count: 10 of 10
dose: 8.0 mg/kg/injection, schedule: Q03HX008 (ip), vehicle: saline
  T/C: 147 % of control
dose: 8.0 mg/kg/injection, schedule: Q03HX024 (ip), vehicle: saline
  T/C: 129 % of control
dose: 8.0 mg/kg/injection, schedule: Q04DX003 (ip), vehicle: saline
  T/C: 144 % of control
dose: 9.3 mg/kg/injection, schedule: Q01DX001 (ip), vehicle: Klucel (hydroxypropylcellulose) (HPC)
  T/C: 143 % of control
dose: 16.0 mg/kg/injection, schedule: Q01DX001 (ip), vehicle: saline
  T/C: 147 % of control
dose: 16.0 mg/kg/injection, schedule: Q01DX009 (ip), vehicle: saline, evaluated on day 56
  T/C: 257 % of control
dose: 16.0 mg/kg/injection, schedule: Q01DX009 (ip), vehicle: saline, evaluated on day 60
  T/C: 171, 172 [9 of 10 alive], 207, 219, 236 % of control
dose: 16.0 mg/kg/injection, schedule: Q01DX009 (ip), vehicle: water
  T/C: 203 [9 of 10 alive], 210, 211 % of control (2×)
dose: 16.0 mg/kg/injection, schedule: Q01DX009 (sc), vehicle: saline
  T/C: 134 % of control
dose: 16.0 mg/kg/injection, schedule: Q03HX024 (ip), vehicle: acid diluted with saline
  survivor count: 9 of 10
dose: 16.0 mg/kg/injection, schedule: Q03HX024 (ip), vehicle: saline
  survivor count: 9 of 10
dose: 16.0 mg/kg/injection, schedule: Q04DX003 (ip), vehicle: saline
  T/C: 146 % of control
dose: 18.7 mg/kg/injection, schedule: Q01DX001 (ip), vehicle: Klucel (hydroxypropylcellulose) (HPC)
  T/C: 149 % of control
dose: 25.0 mg/kg/injection, schedule: Q01DX001 (ip), vehicle: water
  T/C: 146 % of control
[1]
  T/C: 142 % of control
  survivor count: 9 of 10
dose: 32.0 mg/kg/injection, schedule: Q01DX009 (ip), vehicle: acid diluted with saline
  survivor count: 10 of 10
dose: 32.0 mg/kg/injection, schedule: Q01DX009 (ip), vehicle: other
  survivor count: 10 of 10
dose: 32.0 mg/kg/injection, schedule: Q01DX009 (ip), vehicle: saline with Tween-80
  survivor count: 9 of 10 and 10 of 10
dose: 32.0 mg/kg/injection, schedule: Q01DX009 (ip), vehicle: saline
  survivor count: 9 of 10 and 10 of 10 (2×)
[2]
  T/C: 216 and 220 % of control
  survivor count: 8 of 10 and 10 of 10
dose: 32.0 mg/kg/injection, schedule: Q02DX009 (ip), vehicle: saline with Tween-80
  survivor count: 10 of 10
dose: 32.0 mg/kg/injection, schedule: Q02DX009 (ip), vehicle: saline
  survivor count: 9 of 10
